Laboratory results reported in publication PMC13042984.
For some of these results: The comparison behind a weaker result is the experiment's own reference, which may not be listed here. For some of these results: Results from cells or extracts need not show a direct contact. For some of these results: No signal at the amounts used counts as a negative. For some of these results: At least one verdict was read from the data and is not stated in words by the source. For some of these results: Protein sequences can lack the tags named with them. For some of these results: For at least one entry, the source does not settle the construct or the ends of the probe.

Chains of the proteins cited; added tags and fusions are not shown. Where a name states a change or a piece, a line headed by the entry shows the natural chain unless it says otherwise. A line that says so, or that is headed by a name, gives the form on record, which may keep a tag or linker. Residues count along the entry.
UniProt Q9UBB5: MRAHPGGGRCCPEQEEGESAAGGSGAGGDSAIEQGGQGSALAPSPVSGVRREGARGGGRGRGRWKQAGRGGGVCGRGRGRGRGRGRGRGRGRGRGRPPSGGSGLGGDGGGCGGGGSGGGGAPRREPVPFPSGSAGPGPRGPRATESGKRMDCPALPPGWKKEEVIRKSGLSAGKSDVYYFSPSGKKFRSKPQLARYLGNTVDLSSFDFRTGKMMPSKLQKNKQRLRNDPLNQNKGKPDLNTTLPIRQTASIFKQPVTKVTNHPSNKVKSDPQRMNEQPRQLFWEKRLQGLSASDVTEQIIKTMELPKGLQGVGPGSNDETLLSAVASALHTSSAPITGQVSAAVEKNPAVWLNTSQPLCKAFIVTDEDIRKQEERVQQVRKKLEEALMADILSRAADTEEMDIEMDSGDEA
UniProt P48382, 75-168: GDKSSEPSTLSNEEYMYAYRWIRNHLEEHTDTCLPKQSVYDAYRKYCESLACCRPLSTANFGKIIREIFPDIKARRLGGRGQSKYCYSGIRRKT
UniProt P61244, whole entry: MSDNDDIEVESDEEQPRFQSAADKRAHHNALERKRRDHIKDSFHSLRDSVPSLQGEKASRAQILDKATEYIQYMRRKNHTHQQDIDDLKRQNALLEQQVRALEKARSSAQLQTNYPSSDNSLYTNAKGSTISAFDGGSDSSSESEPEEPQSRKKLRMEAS
MBP-MYC (Homo sapiens), one chain, as listed by the source: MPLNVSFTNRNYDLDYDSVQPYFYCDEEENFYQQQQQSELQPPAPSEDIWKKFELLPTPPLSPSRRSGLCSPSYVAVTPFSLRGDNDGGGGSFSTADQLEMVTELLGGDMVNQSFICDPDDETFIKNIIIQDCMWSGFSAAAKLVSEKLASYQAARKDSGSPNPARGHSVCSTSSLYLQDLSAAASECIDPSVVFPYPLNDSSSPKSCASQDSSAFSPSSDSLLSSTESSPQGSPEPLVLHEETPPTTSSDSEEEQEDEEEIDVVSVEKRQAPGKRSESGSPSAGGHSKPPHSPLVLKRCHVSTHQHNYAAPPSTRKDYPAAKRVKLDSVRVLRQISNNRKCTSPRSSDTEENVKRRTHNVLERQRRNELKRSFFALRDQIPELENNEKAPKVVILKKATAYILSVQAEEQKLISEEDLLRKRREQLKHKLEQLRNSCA

Experiments:
MBP-MBD2 (Homo sapiens) = MBP-MBD2 (Homo sapiens) (UniProt Q9UBB5); assay: pull-down western blot; conditions: pulldown: 50 mM Tris pH 8, 150 mM NaCl, 1 mM DTT, 0.25% IGEPAL, dA:dT competitor, 4 C overnight, recombinant protein, protein details: N-terminal MBP
MBP-RFX5 (Homo sapiens) = MBP-RFX5 (Homo sapiens) (UniProt P48382); assay: pull-down dot blot; conditions: pulldown: 50 mM Tris pH 8, 150 mM NaCl, 1 mM DTT, 0.25% IGEPAL, dA:dT competitor, 4 C overnight, protein in a lysate after overexpression, residues 1-616, protein details: N-terminal MBP, C-terminal His
[1] = target: T1, MBP-RFXANK (Homo sapiens) (UniProt O14593); assay: pull-down dot blot; conditions: pulldown: 50 mM Tris pH 8, 150 mM NaCl, 1 mM DTT, 0.25% IGEPAL, dA:dT competitor, 4 C overnight, protein in a lysate after overexpression, residues 1-260, protein details: N-terminal MBP, C-terminal His
T1 sequence (looked up): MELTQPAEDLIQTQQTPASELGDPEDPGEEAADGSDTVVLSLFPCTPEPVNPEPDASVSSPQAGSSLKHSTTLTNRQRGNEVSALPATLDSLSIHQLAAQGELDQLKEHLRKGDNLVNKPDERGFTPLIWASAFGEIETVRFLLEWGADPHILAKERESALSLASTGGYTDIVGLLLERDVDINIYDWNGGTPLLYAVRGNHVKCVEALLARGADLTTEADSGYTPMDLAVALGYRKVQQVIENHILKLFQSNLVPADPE

MBP-MAX (Homo sapiens) = MBP-MAX (Homo sapiens) (UniProt P61244); assay: pull-down dot blot; conditions: pulldown: 50 mM Tris pH 8, 150 mM NaCl, 1 mM DTT, 0.25% IGEPAL, dA:dT competitor, 4 C overnight, protein in a lysate after overexpression, residues 1-160, protein details: N-terminal MBP, C-terminal His
MBP-MYC (Homo sapiens) = assay: pull-down dot blot; conditions: pulldown: 50 mM Tris pH 8, 150 mM NaCl, 1 mM DTT, 0.25% IGEPAL, dA:dT competitor, 4 C overnight, protein in a lysate after overexpression, residues 1-439, protein details: N-terminal MBP, C-terminal His
RFX5 DBD (Homo sapiens) = RFX5 DBD (Homo sapiens) (UniProt P48382); assay: EMSA; conditions: EMSA: 20 mM HEPES, 30 mM KCl, 1 mM EDTA, 1 mM (NH4)2SO4, 0.2% Tween 20, 1 mM DTT, 5 uM dA:dT competitor, 2 nM DNA, 20 min, 21 C (pH not stated), recombinant protein, residues 75-168, protein details: MBP removed by TEV, C-terminal His
[2] = hmC in one strand outside primers, other strand unmodified, strand order not stated explicitly
[3] = hmC at all C of both strands outside primers (CpG and CpH)
[4] = hmC in one strand, mC in the other, outside primers, strand order not stated explicitly
[5] = mC at all C of both strands outside primers (CpG and CpH)

CTGGGCGGAAACCAAGTACGCAACTTGCTCTTACACGCCTCAGCGAGAGAGCGAGTCCTACCATTGGGTAGGCAGCCCGCCTTTCCTCTGCAAGGCCCTCCTTTCACCCTCCCTCATTGGGCGGGGCAGTAGATAAGGGGCGGGGATTAGGCCGGGCTTGTGGTGCGCTGCTCCCTCCTCCTTACCCCCCCCTCCCTGTCCGGTCCGGGTTCGCTTGCCTCGTCAGCGTCCGCGTTTTTCC (double strand) [Sp1 probe mC/mC]
binding result (MBP-MBD2 (Homo sapiens); in mouse brain nuclear extract, mC at all C of both strands outside primers, label: 5'-biotin): binds

TTTCCAAAGCCCATTCCCTCTTTAGCCAGAGCCGGGGTGTGCAGACGGCAGTCACTAGGGGGCGCTCGGCCACCACAGGGAAGCTGGGTGAATGGAGCGAGCAGCGTCTTCGAGAGTGAGGACGTGTGTGTCTGTGTGGGTGAGTGAGTGTGTGCGTGTGGGGTTGAGGGCGTTGGAGCGGGGAGAAGGCCAGGGGTCACT (double strand) [VEGFA PCR probe hmC/C]
binding result (MBP-RFX5 (Homo sapiens); [2]): binds more weakly
binding result [1, 2]: no binding
binding result (MBP-MBD2 (Homo sapiens); 1 nM in HEK293T nuclear extract, hmC in one strand outside primers, other strand unmodified, strand order not stated explicitly): no binding

TTTCCAAAGCCCATTCCCTCTTTAGCCAGAGCCGGGGTGTGCAGACGGCAGTCACTAGGGGGCGCTCGGCCACCACAGGGAAGCTGGGTGAATGGAGCGAGCAGCGTCTTCGAGAGTGAGGACGTGTGTGTCTGTGTGGGTGAGTGAGTGTGTGCGTGTGGGGTTGAGGGCGTTGGAGCGGGGAGAAGGCCAGGGGTCACT (double strand) [VEGFA PCR probe hmC/hmC]
binding result (MBP-MAX (Homo sapiens); [3]): binds
binding result (MBP-MYC (Homo sapiens); [3]): binds
binding result (MBP-RFX5 (Homo sapiens); [3]): binds more weakly
binding result [1, 3]: no binding
binding result (MBP-MBD2 (Homo sapiens); 1 nM in HEK293T nuclear extract, hmC at all C of both strands outside primers (CpG and CpH)): no binding

TTTCCAAAGCCCATTCCCTCTTTAGCCAGAGCCGGGGTGTGCAGACGGCAGTCACTAGGGGGCGCTCGGCCACCACAGGGAAGCTGGGTGAATGGAGCGAGCAGCGTCTTCGAGAGTGAGGACGTGTGTGTCTGTGTGGGTGAGTGAGTGTGTGCGTGTGGGGTTGAGGGCGTTGGAGCGGGGAGAAGGCCAGGGGTCACT (double strand) [VEGFA PCR probe hmC/mC]
binding result (RFX5 DBD (Homo sapiens); [4]): binds more weakly
binding result (MBP-RFX5 (Homo sapiens); similar to mC/mC, hmC in one strand, mC in the other, outside primers, strand order not stated explicitly): binds
binding result [1, 4]: no binding
binding result (MBP-MBD2 (Homo sapiens); 1 nM in HEK293T nuclear extract, hmC in one strand, mC in the other, outside primers, strand order not stated explicitly): binds more weakly

TTTCCAAAGCCCATTCCCTCTTTAGCCAGAGCCGGGGTGTGCAGACGGCAGTCACTAGGGGGCGCTCGGCCACCACAGGGAAGCTGGGTGAATGGAGCGAGCAGCGTCTTCGAGAGTGAGGACGTGTGTGTCTGTGTGGGTGAGTGAGTGTGTGCGTGTGGGGTTGAGGGCGTTGGAGCGGGGAGAAGGCCAGGGGTCACT (double strand) [VEGFA PCR probe mC/mC]
binding result (RFX5 DBD (Homo sapiens); about six sites in probe, mC at all C of both strands outside primers (CpG and CpH)): binds
binding result (MBP-MAX (Homo sapiens); [5]): binds more weakly
binding result (MBP-MYC (Homo sapiens); [5]): binds more weakly
binding result (MBP-RFX5 (Homo sapiens); [5]): binds
binding result [1, 5]: no binding
binding result (MBP-MBD2 (Homo sapiens); 1 nM in HEK293T nuclear extract, mC at all C of both strands outside primers (CpG and CpH)): binds
